No constants are given. Whether binding was seen depends on the method and setting. In cells and extracts the contact can be indirect. For part of these data: Where a sequence is shown, tags or fusion partners need not be part of it.
Key:
[1] = biological target: Flag-PALM2^C408S (human) (UniProt Q9Y2D5); assay: co-IP; Flag IP (anti-DYKDDDDK magnetic agarose) from lysates of transfected HEK 293T cells; lysis buffer 50 mM Tris-HCl pH 7.5, 120 mM NaCl, 0.5% NP-40; 4 °C overnight; Western blot; in Fig. 5C cells with or without FTI 277 for 48 h
[2] = biological target: T1, Flag-PALM2^ΔCAAX (the truncated type) (human) (UniProt Q9Y2D5); assay: as above
T1 sequence: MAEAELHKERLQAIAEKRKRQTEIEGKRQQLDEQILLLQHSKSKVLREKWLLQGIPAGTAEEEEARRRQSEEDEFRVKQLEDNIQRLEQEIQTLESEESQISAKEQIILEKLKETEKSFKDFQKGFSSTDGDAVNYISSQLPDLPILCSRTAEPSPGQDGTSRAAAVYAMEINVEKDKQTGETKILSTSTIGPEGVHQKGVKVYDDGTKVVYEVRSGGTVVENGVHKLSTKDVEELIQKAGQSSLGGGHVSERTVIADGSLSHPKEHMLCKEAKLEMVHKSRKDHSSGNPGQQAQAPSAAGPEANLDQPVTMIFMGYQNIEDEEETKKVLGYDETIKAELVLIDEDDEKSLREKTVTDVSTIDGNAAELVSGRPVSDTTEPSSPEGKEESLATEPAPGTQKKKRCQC

By UniProt entry, the sequences of proteins in these tests, tags left out.
UniProt P15311: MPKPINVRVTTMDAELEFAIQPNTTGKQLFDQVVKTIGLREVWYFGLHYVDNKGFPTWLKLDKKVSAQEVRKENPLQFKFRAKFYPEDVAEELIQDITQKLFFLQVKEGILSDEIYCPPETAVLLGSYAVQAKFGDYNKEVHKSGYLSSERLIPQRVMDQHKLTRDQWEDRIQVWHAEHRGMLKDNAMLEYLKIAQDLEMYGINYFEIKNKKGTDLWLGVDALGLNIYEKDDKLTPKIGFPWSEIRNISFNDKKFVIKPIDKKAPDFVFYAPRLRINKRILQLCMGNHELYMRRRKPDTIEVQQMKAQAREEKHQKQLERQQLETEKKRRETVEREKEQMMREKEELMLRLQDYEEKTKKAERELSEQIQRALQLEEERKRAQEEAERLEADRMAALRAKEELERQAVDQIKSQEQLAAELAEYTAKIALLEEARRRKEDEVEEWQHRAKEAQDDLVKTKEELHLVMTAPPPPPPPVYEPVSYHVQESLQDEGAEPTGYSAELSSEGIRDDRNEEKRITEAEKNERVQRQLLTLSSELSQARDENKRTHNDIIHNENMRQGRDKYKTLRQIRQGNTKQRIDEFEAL

[3] = biological target: Flag-PALM2^C408S (KYSE30 cells) (human) (UniProt Q9Y2D5); assay: co-IP; immunoprecipitation from lysates of stably transfected KYSE30 cells; lysis buffer 50 mM Tris-HCl pH 7.5, 120 mM NaCl, 0.5% NP-40; Western blot (supplemental Fig. S5A)

Row | binding [1] | binding [2] | binding [3] | Substance
1 | no binding | no binding | – | GFP-ezrin (wild type) (from UniProt P15311 1-586)
2 | – | – | no binding | ezrin (KYSE30 cells) (from UniProt P15311 1-586)
